Literature values in US20100136095A1, “Systems for modulating inflammation” (Searete LLC, a limited liability corporation of the State …, priority 2008, published 2010).
At least one structure is not confirmed: it was looked up by name or label, or the drawing left a doubt.

What was measured:
[1] = system: malarial parasites
[2] = system: Leishmania
[3] = system: Giardia

CCN(CC)C(=S)S [Diethyldithiocarbamate]
toxic: toxicity to malarial parasites [1] | toxicity to Leishmania [2] | toxicity to Giardia [3]
